Source: the supplement of paper PMC10849652
This is one part of the list.

Chains of the proteins cited; added tags and fusions are not shown. Lines headed by an entry give the natural chain unless they say otherwise; changes in a name come on top.
UniProt Q9Y5J7: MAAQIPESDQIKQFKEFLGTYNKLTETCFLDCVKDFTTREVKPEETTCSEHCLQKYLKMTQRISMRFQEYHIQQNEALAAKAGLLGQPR
UniProt Q9UP52: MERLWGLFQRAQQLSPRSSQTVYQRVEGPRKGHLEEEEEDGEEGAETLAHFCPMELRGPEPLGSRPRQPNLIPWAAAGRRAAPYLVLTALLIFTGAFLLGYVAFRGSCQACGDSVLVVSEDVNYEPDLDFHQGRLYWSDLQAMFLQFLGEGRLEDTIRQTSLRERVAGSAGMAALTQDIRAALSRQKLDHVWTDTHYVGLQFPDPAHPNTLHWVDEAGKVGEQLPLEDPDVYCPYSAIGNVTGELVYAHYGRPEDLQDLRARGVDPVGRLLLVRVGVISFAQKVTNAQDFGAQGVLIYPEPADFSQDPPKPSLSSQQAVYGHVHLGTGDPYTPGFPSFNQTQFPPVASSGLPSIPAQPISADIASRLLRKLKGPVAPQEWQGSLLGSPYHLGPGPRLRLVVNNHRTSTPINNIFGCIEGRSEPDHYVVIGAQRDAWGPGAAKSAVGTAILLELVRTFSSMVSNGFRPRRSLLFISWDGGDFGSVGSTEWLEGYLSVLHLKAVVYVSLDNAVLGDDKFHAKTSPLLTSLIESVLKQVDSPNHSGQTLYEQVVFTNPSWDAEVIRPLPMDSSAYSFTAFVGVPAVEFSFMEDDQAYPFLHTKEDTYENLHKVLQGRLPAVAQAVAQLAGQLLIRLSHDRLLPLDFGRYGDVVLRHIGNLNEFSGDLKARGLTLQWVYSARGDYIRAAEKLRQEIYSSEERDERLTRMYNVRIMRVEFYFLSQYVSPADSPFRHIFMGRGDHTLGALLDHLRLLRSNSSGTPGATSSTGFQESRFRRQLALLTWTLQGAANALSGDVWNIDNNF
UniProt P02786, whole entry, looked up: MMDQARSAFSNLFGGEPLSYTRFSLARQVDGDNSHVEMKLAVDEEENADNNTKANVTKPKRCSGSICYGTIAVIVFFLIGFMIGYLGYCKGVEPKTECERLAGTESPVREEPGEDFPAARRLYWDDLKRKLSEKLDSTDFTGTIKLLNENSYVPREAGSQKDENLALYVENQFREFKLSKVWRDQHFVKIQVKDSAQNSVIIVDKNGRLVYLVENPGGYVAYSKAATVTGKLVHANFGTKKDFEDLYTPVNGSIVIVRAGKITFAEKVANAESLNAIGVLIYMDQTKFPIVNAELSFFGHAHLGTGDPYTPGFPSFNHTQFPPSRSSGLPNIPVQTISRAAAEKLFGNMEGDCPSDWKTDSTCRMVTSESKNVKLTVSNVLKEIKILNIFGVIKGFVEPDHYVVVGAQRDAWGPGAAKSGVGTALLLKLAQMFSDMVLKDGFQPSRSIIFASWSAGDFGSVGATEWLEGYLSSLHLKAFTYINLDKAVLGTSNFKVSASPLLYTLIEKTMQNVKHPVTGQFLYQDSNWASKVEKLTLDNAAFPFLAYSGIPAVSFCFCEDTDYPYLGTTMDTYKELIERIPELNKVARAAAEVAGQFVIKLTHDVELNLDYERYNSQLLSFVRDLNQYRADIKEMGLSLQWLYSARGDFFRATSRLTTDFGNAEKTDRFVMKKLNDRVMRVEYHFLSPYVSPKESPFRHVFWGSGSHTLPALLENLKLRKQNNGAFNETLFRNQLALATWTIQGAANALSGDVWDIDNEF
UniProt Q9NWX6: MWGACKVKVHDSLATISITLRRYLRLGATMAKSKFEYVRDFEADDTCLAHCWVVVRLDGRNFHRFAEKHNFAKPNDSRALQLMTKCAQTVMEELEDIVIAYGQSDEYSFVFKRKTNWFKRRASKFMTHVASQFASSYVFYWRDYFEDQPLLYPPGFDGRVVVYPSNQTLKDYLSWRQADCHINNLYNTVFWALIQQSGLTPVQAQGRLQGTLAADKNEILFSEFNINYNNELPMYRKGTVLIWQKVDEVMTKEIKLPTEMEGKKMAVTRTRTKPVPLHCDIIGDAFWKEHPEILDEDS
UniProt Q15814: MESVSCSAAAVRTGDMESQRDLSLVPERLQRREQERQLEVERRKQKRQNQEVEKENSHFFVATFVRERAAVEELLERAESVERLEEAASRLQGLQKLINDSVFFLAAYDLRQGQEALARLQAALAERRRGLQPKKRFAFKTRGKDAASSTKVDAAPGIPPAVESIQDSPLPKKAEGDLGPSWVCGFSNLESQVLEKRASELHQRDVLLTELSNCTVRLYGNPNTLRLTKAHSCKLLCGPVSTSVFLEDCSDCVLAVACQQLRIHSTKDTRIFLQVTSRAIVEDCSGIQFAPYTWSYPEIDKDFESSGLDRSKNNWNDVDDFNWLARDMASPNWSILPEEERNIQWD
UniProt Q9Y4R8, whole entry, looked up: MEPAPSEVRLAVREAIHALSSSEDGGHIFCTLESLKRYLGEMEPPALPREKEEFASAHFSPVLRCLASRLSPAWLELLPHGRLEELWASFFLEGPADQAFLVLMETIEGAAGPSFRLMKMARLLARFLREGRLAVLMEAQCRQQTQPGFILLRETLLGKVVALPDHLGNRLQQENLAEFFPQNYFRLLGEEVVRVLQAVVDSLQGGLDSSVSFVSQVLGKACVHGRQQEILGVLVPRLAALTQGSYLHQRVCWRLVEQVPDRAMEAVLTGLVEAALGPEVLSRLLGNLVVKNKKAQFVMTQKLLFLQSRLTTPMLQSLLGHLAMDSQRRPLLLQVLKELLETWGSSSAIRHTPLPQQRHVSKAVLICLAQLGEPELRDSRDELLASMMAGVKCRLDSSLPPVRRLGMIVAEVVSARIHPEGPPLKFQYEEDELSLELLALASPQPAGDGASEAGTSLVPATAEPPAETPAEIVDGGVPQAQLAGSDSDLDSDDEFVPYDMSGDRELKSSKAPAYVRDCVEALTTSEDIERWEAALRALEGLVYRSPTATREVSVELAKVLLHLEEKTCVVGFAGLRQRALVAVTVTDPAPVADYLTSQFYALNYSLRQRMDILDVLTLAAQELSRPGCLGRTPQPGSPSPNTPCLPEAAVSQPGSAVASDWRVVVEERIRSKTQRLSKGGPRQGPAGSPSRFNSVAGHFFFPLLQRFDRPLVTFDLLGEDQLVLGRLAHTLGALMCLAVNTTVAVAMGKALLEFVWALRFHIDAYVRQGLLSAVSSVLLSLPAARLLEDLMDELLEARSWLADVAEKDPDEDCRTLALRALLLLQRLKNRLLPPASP
UniProt O75347: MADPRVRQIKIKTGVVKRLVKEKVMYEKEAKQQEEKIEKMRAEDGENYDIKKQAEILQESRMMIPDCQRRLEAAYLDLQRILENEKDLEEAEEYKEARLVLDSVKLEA
UniProt Q01085: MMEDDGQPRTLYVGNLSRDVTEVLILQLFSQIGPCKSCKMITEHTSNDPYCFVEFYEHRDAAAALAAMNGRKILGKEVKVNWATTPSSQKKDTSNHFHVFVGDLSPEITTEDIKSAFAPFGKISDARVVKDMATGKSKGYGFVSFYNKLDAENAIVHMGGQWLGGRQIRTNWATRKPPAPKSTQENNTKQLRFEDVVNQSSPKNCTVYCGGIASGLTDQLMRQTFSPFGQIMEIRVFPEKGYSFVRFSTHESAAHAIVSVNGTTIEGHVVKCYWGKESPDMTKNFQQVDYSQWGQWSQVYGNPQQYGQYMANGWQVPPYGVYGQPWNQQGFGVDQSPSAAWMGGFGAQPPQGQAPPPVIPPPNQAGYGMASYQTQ
UniProt Q04726: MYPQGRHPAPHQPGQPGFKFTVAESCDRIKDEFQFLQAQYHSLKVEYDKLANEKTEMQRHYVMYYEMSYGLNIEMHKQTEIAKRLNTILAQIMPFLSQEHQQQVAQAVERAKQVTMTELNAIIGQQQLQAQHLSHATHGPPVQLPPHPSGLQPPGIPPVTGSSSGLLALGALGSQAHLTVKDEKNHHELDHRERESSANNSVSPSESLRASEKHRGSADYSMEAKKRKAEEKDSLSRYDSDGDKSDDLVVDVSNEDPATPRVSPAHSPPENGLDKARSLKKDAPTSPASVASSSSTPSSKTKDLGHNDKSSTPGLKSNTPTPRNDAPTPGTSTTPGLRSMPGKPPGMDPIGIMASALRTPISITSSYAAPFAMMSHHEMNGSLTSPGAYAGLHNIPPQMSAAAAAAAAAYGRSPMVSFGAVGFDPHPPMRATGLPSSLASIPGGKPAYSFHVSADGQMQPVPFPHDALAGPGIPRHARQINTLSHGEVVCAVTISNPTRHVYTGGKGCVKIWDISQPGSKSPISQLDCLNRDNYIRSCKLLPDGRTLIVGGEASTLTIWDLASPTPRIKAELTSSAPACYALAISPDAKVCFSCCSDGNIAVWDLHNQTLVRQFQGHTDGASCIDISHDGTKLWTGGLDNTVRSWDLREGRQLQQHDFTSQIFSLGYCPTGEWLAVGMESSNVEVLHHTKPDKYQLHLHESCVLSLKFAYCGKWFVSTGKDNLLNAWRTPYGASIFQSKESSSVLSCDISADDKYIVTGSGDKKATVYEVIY
UniProt P01137, whole entry, looked up: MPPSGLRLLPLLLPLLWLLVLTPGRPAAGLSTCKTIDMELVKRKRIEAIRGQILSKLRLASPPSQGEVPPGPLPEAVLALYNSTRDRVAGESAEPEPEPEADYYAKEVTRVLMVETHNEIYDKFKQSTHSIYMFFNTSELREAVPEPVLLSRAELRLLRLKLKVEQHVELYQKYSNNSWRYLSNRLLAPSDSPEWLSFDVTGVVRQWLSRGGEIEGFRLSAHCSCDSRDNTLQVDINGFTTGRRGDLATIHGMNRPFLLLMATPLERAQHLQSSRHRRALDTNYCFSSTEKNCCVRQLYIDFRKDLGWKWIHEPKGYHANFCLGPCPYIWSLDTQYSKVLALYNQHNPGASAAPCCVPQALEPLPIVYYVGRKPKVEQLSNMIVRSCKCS
UniProt O95551: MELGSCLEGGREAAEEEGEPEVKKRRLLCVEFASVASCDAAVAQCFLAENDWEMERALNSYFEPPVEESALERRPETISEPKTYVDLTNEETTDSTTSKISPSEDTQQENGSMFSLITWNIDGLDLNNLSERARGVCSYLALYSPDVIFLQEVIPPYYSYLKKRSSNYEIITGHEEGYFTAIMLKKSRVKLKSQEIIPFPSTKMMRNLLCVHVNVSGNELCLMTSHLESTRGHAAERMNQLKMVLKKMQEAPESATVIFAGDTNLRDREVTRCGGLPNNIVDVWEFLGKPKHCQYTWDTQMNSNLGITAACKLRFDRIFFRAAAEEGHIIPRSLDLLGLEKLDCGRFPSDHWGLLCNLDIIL
UniProt Q9NZ01: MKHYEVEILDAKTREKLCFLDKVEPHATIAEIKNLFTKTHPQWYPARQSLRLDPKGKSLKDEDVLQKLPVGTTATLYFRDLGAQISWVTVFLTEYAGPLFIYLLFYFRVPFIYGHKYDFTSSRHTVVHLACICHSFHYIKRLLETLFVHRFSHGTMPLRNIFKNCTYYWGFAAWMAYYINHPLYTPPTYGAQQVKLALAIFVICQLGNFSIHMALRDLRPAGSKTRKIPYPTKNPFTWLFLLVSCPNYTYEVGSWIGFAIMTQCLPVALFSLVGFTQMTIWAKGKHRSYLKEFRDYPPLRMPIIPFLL
UniProt Q15554: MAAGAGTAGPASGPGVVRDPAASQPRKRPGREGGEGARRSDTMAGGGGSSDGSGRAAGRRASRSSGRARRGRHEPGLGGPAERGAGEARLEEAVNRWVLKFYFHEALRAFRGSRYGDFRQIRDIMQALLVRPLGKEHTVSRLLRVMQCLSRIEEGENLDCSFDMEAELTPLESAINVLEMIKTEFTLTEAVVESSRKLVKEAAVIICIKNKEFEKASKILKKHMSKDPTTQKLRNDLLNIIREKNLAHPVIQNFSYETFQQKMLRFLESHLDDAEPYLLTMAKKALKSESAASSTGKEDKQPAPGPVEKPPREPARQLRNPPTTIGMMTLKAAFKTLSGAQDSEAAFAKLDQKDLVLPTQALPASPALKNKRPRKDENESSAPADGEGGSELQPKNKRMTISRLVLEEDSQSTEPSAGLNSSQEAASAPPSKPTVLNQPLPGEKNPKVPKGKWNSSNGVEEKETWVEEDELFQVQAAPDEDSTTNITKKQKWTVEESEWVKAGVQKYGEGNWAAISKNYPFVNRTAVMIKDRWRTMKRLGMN
UniProt Q86XR7, whole entry, looked up: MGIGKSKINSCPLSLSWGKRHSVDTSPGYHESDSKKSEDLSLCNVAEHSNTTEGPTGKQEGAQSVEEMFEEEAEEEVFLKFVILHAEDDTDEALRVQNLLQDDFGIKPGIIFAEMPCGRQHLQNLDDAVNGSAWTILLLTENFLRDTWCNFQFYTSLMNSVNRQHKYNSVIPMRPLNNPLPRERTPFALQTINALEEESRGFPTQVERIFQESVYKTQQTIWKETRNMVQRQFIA
UniProt Q9Y5L4: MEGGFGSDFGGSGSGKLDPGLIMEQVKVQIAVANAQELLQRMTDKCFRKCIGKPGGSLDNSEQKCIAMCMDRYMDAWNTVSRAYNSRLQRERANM
UniProt Q96BS2: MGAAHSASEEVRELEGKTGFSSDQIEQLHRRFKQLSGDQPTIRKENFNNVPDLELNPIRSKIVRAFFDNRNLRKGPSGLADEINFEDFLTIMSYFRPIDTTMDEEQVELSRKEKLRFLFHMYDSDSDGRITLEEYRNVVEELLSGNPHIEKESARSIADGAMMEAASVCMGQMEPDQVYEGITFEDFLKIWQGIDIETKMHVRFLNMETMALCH

Compound: C[C@H](C1=CC=C(C=C1)C(=O)NC2=C3C=CNC3=NC=C2)N
Test: log2 fold change, soluble protein after heating vs DMSO (PISA); higher = thermal stabilisation; K562 cells, 10 uM, 30 min; active = over 0.2 and 3.5 SD of the protein, either way, in both replicates (recomputed)
Procedure, shortened: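 K562 cells at 2×10^6 cells/mL were given 10 μM compound for 30 min. Aliquots then went through 3 min of heating across 48°C-58°C, were pooled, and were extracted in PBS with 0.5% NP-40 at 4°C, and the supernatant after 21,000xg for 90 min was quantified by TMTpro 16plex LC-MS/MS with channel sums equalised. Thermal stability relative to control samples, from duplicates, is given as log2 fold change.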

log2 fold change, inactive:
TEX264 (UniProt Q9Y6I9) 0.176
THOP1 (UniProt P52888) -0.064
TGFBRAP1 (UniProt Q8WUH2) 0.067
TIMM9 (UniProt Q9Y5J7) -0.222
TCF3 (UniProt P15923) 0.024
TIMM10 (UniProt P62072) -0.006
TFR2 (UniProt Q9UP52) -0.016
TBL1XR1 (UniProt Q9BZK7) -0.019
TBC1D9B (UniProt Q66K14) 0.008
TKFC (UniProt Q3LXA3) -0.012
TGFBR1 isoform 2 (UniProt P36897) 0.024
TCOF1 isoform 4 (UniProt Q13428) -0.016
TIMM8A (UniProt O60220) -0.279
THUMPD2 (UniProt Q9BTF0) 0.071
TFB2M (UniProt Q9H5Q4) 0.025
TIMM17A (UniProt Q99595) -0.084
TFRC (UniProt P02786) -0.018
THG1L (UniProt Q9NWX6) -0.027
TBCC (UniProt Q15814) -0.064
TES (UniProt Q9UGI8) -0.074
TELO2 (UniProt Q9Y4R8) 0.233
TBCA (UniProt O75347) -0.064
TBC1D4 (UniProt O60343) -0.002
TIAL1 isoform 2 (UniProt Q01085) -0.014
TLE3 isoform 4 (UniProt Q04726) -0.02
TGM2 (UniProt P21980) -0.048
TGFB1 (UniProt P01137) -0.01
TDP2 isoform 2 (UniProt O95551) 0.003
TECR (UniProt Q9NZ01) 0.045
TIMM22 (UniProt Q9Y584) -0.325
THBS4 (UniProt P35443) 0.082
TERF2 (UniProt Q15554) 0.104
TICAM2 isoform 2 (UniProt Q86XR7) -0.081
TIMM13 (UniProt Q9Y5L4) -0.115
TBL1X (UniProt O60907) -0.053
TF (UniProt P02787) 0.367
THOC5 (UniProt Q13769) -0.014
TBC1D15 isoform 3 (UniProt Q8TC07) 0.036
TESC (UniProt Q96BS2) 0.029
TCERG1 (UniProt O14776) -0.063

Already shown: an excerpt of the list.
log2 fold change, inactive:
TGFBR1 isoform 2 (UniProt P36897) 0.024
TCOF1 isoform 4 (UniProt Q13428) -0.016
TIMM8A (UniProt O60220) -0.279
THUMPD2 (UniProt Q9BTF0) 0.071
TFB2M (UniProt Q9H5Q4) 0.025
TIMM17A (UniProt Q99595) -0.084
TFRC (UniProt P02786) -0.018
THG1L (UniProt Q9NWX6) -0.027
